Experimental data: PubChem BioAssay AID652243 (Drosophila RNAi Screening Center, 2013)
The screen tested about 24,000 reagents; shown is a random part of those that have a named target and a result. Over the whole deposit, 246 (1%) are marked active. 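Plates not normalised; calls are printed but the firefly/Renilla ratio behind them is not deposited; fold cut for lowering reported inconsistently.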 Raw values vary from plate to plate and are shown uncorrected. No sequences are given here. Not stated in the record: the amount of reagent.

Assay: 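Fly genes required for human androgen receptor driven transcription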 (primary screen)
System: Drosophila S2R+ cells
Knock-down reagent: long dsRNA against Drosophila genes
Time to read-out: 72 h (48 h, then 24 h hormone)
Conditions: synthetic androgen R1881 at 10 nM for 24 h
Measured: 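Per-well raw luminescence of the androgen-driven firefly reporter and of the Renilla control, two replicates each, without normalisation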
Direction: firefly reporter light: higher = more light from androgen-responsive reporter; Renilla control light: higher = more constitutive control signal (cell number, transfection)
Hit rule: 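Across duplicate plates, a knock-down whose log firefly/Renilla ratio shifted a set fold down or up from the GFP/LacZ control mean was a hit; the downward cut appears as both 1.5 and 3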
Calls: active = hit: reporter lowered or raised; inactive = no hit

| gene | dsRNA | firefly reporter light, replicate 1 | firefly reporter light, replicate 2 | Renilla control light, replicate 1 | Renilla control light, replicate 2 | activity call |
| --- | --- | --- | --- | --- | --- | --- |
| robl22E | DRSC00289 | 93266 | 1.41e5 | 7.97e5 | 8.87e5 | inactive |
| CG4770 | DRSC15639 | 3.71e5 | 2.90e5 | 3.65e6 | 3.05e6 | inactive |
| alt | DRSC15315 | 33067 | 94757 | 3.79e5 | 4.93e5 | inactive |
| alt | DRSC28347 | 5.02e5 | 5.61e5 | 6.47e5 | 1.04e6 | inactive |
| CG3386 | DRSC08566 | 39243 | 65428 | 6.56e5 | 6.75e5 | inactive |
| CG3386 | DRSC28282 | 2.78e5 | 4.95e5 | 8.21e5 | 1.81e6 | inactive |
| l(3)80Fg | DRSC21645 | 1.08e6 | 1.08e6 | 1.83e6 | 1.97e6 | inactive |
| l(3)80Fg | DRSC22171 | 7.03e5 | 5.96e5 | 2.72e6 | 2.04e6 | inactive |
| l(3)80Fg | DRSC38565 | 8.89e5 | 7.53e5 | 2.07e6 | 2.00e6 | inactive |
| Sulf1 | DRSC16874 | 75944 | 86225 | 1.42e6 | 1.85e6 | inactive |
| Sulf1 | DRSC27279 | 1.72e5 | 2.02e5 | 4.82e5 | 6.45e5 | inactive |
| Gdh | DRSC16679 | 62871 | 26977 | 6.48e5 | 2.98e5 | inactive |
| Gdh | DRSC28603 | 5.55e5 | 4.75e5 | 1.57e6 | 1.38e6 | inactive |
| Ggamma30A | DRSC02715 | 2.12e5 | 2.21e5 | 1.40e6 | 1.65e6 | inactive |
| Ggamma30A | DRSC03331 | 1.70e5 | 1.88e5 | 1.49e6 | 1.33e6 | inactive |
| Mdh2 | DRSC16361 | 34004 | 71829 | 7.85e5 | 1.25e6 | inactive |
| CG14370 | DRSC14832 | 1.17e5 | 1.13e5 | 1.87e6 | 2.69e6 | inactive |
| CG34219 | DRSC38680 | 7.31e5 | 7.13e5 | 1.35e6 | 2.46e6 | inactive |
| CG9519 | DRSC20195 | 80786 | 96443 | 5.58e5 | 8.11e5 | inactive |
| CG9519 | DRSC28137 | 5.43e5 | 3.89e5 | 1.94e6 | 1.42e6 | inactive |
| CG11313 | DRSC14295 | 1.19e5 | 1.55e5 | 1.58e6 | 1.97e6 | inactive |
| CG3397 | DRSC15487 | 76871 | 95698 | 6.14e5 | 7.22e5 | inactive |
| CG34250 | DRSC38751 | 1.01e6 | 5.96e5 | 1.96e6 | 1.53e6 | inactive |
| scb | DRSC05542 | 1.46e5 | 2.04e5 | 4.12e5 | 4.25e5 | inactive |
| scb | DRSC07678 | 79148 | 57246 | 1.38e6 | 1.38e6 | inactive |
| RnrS | DRSC07533 | 7.80e5 | 2.48e5 | 1.11e6 | 1.03e6 | inactive |
| RnrS | DRSC23541 | 2.87e5 | 2.19e5 | 1.45e6 | 5.31e5 | inactive |
| Atg3 | DRSC10736 | 4.71e5 | 3.72e5 | 3.32e6 | 3.03e6 | inactive |
| Atg3 | DRSC21758 | 4.75e5 | 4.32e5 | 3.74e6 | 4.18e6 | inactive |
| Atg3 | DRSC29687 | 8.02e5 | 6.63e5 | 1.45e6 | 1.09e6 | inactive |
| Dph2 | DRSC16222 | 39010 | 61932 | 3.52e5 | 3.15e5 | inactive |
| Dph2 | DRSC26401 | 1.78e5 | 2.77e5 | 4.38e5 | 6.35e5 | inactive |
| CG10903 | DRSC14281 | 93770 | 1.23e5 | 1.76e6 | 1.36e6 | inactive |
| HisCl1 | DRSC14945 | 73821 | 1.11e5 | 5.51e5 | 4.92e5 | inactive |
| CG5608 | DRSC15841 | 78152 | 1.11e5 | 6.18e5 | 7.19e5 | inactive |
| CG32369 | DRSC10042 | 99654 | 1.16e5 | 1.05e6 | 1.84e6 | inactive |
| CG32369 | DRSC10834 | 8.91e5 | 8.79e5 | 1.48e6 | 1.88e6 | inactive |
| CG32369 | DRSC23995 | 5.80e5 | 3.34e5 | 6.74e5 | 6.16e5 | inactive |
| Xrp1 | DRSC15283 | 97244 | 65324 | 1.88e6 | 1.17e6 | inactive |
| Xrp1 | DRSC28718 | 2.56e5 | 2.44e5 | 8.82e5 | 6.71e5 | inactive |
